Drawing on patent US20240352121A1, “LAIR-1 AGONISTIC ANTIBODIES AND METHODS OF USE THEREOF” (NEXTCURE, INC., priority 2023, published 2024), this text covers binding for one molecule.

Results are given in words; binding and its absence hold for the method and conditions named. Binding can be weak; no strength is given.

The target of experiment [1] is cynomolgus LAIR-1 expressed on cells (293T cell line overexpressing cynomolgus LAIR-1) (cynomolgus). Description: flow cytometry, titrated h11B3, AF647 secondary antibody (FIG. 21B).
For experiment [2] the target is unchanged. Kind of experiment: cell binding (FIG. 20B).

B1: h11B3 LAIR-1 mAb, Anti-LAIR-1 Variant 6 (h11B3 VL-2 / h11B3 VH-3) (antibody, V domains shown)
VH: EVQLVESGGGLVQPGGSLKLSCAASGFTFNTNAMYWVRQAPGKGLEWVGRIRSKSSNYATYYAASVKGRFTISRDDSKNTLYLQMNSLKTEDTAVYYCVRGGSGFFAYWGQGTLVTVSS
VL: DIQMTQSPSSLSASLGDRVTITCKASEDIYIRLAWYQQKPGKAPRLLISTATSLETGVPSRFSGSGSGTDYTFTISSLQPEDIATYYCQQYWSTPYTFGGGTRLEIK
With B1, the binding result in experiment [1] and in experiment [2] was “binds” each time.
